# The list does not hold the whole screen: it is rich in T/C values a quarter to a half above the control, in often repeated tests (any T/C) and in doses without a T/C. Other doses and runs of a compound stand elsewhere. T/C: endpoint of the treated group in % of that of the vehicle group. Some doses have a count of surviving animals in place of a T/C: the source holds a T/C of zero for them, seemingly a mark for toxic or unscored doses. Some doses without a T/C left all or most animals alive at the check, yet need not have been tolerated: the source hardly ever lists a survival T/C far under the control, and the zero likely stands for such cases as well. Counts of survivors are from the toxicity check (mostly the fifth day) where no day follows; animals may have died later. Schedule codes are those of the source, taken here to give the interval after Q, in days (D) or hours (H), and the number of doses after X. Some doses were run more than once; their values stand side by side, smallest first. Some schedule codes hold Z or #, which are not explained here. Where survival is the endpoint, the PubChem record calls one and a half times the control and up active, and a quarter to a half above the control has no call in these data; cut-offs in other NCI protocols can differ. Some T/C values carry the count of animals alive at the toxicity check (mostly the fifth day); without a count, all were alive then.
# Test system: L1210 leukemia ip in BDF1 mice, survival T/C
# Test: NCI In Vivo Anticancer Drug Screen. Data for tumor model L1210 Leukemia (intraperitoneal) in B6D2F1 (BDF1) mice
# Conditions: T/C endpoint: mean survival time, higher T/C = longer survival
# [1] = dose: 200.0 mg/kg/injection, schedule: Q01DX001 (ip), vehicle: saline
# [2] = dose: 200.0 mg/kg/injection, schedule: Q04DX003 (ip), vehicle: saline
# [3] = dose: 400.0 mg/kg/injection, schedule: Q01DX001 (ip), vehicle: saline
# [4] = dose: 400.0 mg/kg/injection, schedule: Q01DX009 (ip), vehicle: Klucel (hydroxypropylcellulose) (HPC)
# [5] = dose: 80.0 mg/kg/injection, schedule: Q01DX001 (ip), vehicle: saline
# [6] = dose: 300.0 mg/kg/injection, schedule: Q01DX001 (ip), vehicle: saline
# [7] = dose: 400.0 mg/kg/injection, schedule: Q04DX003 (ip), vehicle: Klucel (hydroxypropylcellulose) (HPC)
smiles,measurement,setting,value
COC(OC(CO)C(O)S(=O)(=O)O)C(O)S(=O)(=O)O (centres undefined),T/C,"dose: 35.0 mg/kg/injection, schedule: Q01DX009 (ip), vehicle: saline",129 % of control
same,T/C,"dose: 50.0 mg/kg/injection, schedule: Q01DX009 (ip), vehicle: saline",133 % of control
same,T/C,"dose: 70.0 mg/kg/injection, schedule: Q01DX009 (ip), vehicle: saline",126 and 143 % of control
same,T/C,"dose: 100.0 mg/kg/injection, schedule: Q01DX009 (ip), vehicle: saline",141 % of control
same,T/C,"dose: 100.0 mg/kg/injection, schedule: Q03HX016 (ip), vehicle: saline",135 % of control
same,T/C,"dose: 100.0 mg/kg/injection, schedule: Q08DX002 (ip), vehicle: saline",128 % of control
same,T/C,"dose: 140.0 mg/kg/injection, schedule: Q01DX009 (ip), vehicle: saline",139 and 146 % of control
same,T/C,[1],140 % of control
same,T/C,[2],127 % of control
same,T/C,"dose: 200.0 mg/kg/injection, schedule: Q08DX002 (ip), vehicle: saline",133 % of control
same,T/C,"dose: 280.0 mg/kg/injection, schedule: Q01DX001 (ip), vehicle: saline",130 % of control
same,T/C,"dose: 280.0 mg/kg/injection, schedule: Q01DX009 (ip), vehicle: saline",143 % of control [4 of 6 alive]
same,survivor count,"dose: 400.0 mg/kg/injection, schedule: Q01DX009 (ip), vehicle: saline",7 of 8
same,survivor count,"dose: 400.0 mg/kg/injection, schedule: Q01DX009 (sc), vehicle: saline",4 of 8
same,T/C,"dose: 400.0 mg/kg/injection, schedule: Q08DX002 (ip), vehicle: saline",140 % of control
same,T/C,"dose: 560.0 mg/kg/injection, schedule: Q01DX001 (ip), vehicle: saline",125 and 133 % of control [4 of 6 alive]
same,survivor count,"dose: 560.0 mg/kg/injection, schedule: Q01DX009 (ip), vehicle: saline",0 of 6 and 1 of 6
same,survivor count,"dose: 800.0 mg/kg/injection, schedule: Q01DX001 (ip), vehicle: saline",3 of 8
same,survivor count,"dose: 800.0 mg/kg/injection, schedule: Q04DX003 (ip), vehicle: saline",1 of 8
same,survivor count,"dose: 800.0 mg/kg/injection, schedule: Q08DX002 (ip), vehicle: saline",2 of 8
ONc1ccccn1,survivor count,[3],0 of 6
CC(Oc1cc(Cl)c(Cl)cc1Cl)C(=O)ON(C)C (centres undefined),survivor count,[4],0 of 6
CN(C)c1ccc(N=C(C#N)C#N)cc1,survivor count,"dose: 300.0 mg/kg/injection, schedule: Q01DX001 (ip), vehicle: other",4 of 6
CC(=O)c1ccc(N2C(=O)C=CC2=O)cc1,survivor count,"dose: 100.0 mg/kg/injection, schedule: Q04DX003 (ip), vehicle: Klucel (hydroxypropylcellulose) (HPC)",0 of 6
Cc1cc(Br)c2c(C)ccc(C)c2n1,survivor count,"dose: 20.0 mg/kg/injection, schedule: Q01DX001 (ip), vehicle: saline",1 of 6
same,survivor count,"dose: 40.0 mg/kg/injection, schedule: Q01DX001 (ip), vehicle: saline",0 of 6
same,survivor count,"dose: 75.0 mg/kg/injection, schedule: Q01DX001 (ip), vehicle: saline",0 of 6
same,survivor count,[5],0 of 6
same,survivor count,"dose: 150.0 mg/kg/injection, schedule: Q01DX001 (ip), vehicle: saline",0 of 6
same,survivor count,[6],0 of 6
Cc1nc2[nH]cnc(=S)c2[nH]1,survivor count,"dose: 400.0 mg/kg/injection, schedule: Q01DX001 (ip), vehicle: other",0 of 6
OCC1OC2OC(c3ccccc3)(c3ccc(OCc4ccccc4)nc3OCc3ccccc3)OC2C1O (centres undefined),survivor count,"dose: 50.0 mg/kg/injection, schedule: Q01DX001 (ip), vehicle: other",6 of 6
CC(C)=CCC(OC(=O)C=C(C)C)C1=CC(=O)c2c(O)ccc(O)c2C1=O (centres undefined),survivor count,"dose: 25.0 mg/kg/injection, schedule: Q01DX009 (ip), vehicle: saline",3 of 6
same,survivor count,"dose: 50.0 mg/kg/injection, schedule: Q04DX003 (ip), vehicle: saline",5 of 10
CCN1/C(=C\c2ccc3cc(C)ccc3[n+]2CC)[Se]c2ccccc21,survivor count,"dose: 9.5 mg/kg/injection, schedule: Q01DX001 (ip), vehicle: other",0 of 6
same,survivor count,"dose: 19.0 mg/kg/injection, schedule: Q01DX001 (ip), vehicle: other",0 of 6
same,survivor count,"dose: 38.0 mg/kg/injection, schedule: Q01DX001 (ip), vehicle: other",0 of 6
O=C(Nc1ccc(C2=NCCCCN2)cc1)c1ccc(C(=O)Nc2ccc(C3=NCCCCN3)cc2)c(Cl)c1,survivor count,"dose: 1.0 mg/kg/injection, schedule: Q01DX015 (ip), vehicle: water",3 of 6
same,survivor count,"dose: 2.0 mg/kg/injection, schedule: Q01DX015 (ip), vehicle: water",1 of 6
same,survivor count,"dose: 4.0 mg/kg/injection, schedule: Q01DX015 (ip), vehicle: water",1 of 6
same,survivor count,"dose: 8.0 mg/kg/injection, schedule: Q01DX Z (ip), vehicle: water",0 of 6
same,survivor count,"dose: 16.0 mg/kg/injection, schedule: Q01DX Z (ip), vehicle: water",0 of 6
same,survivor count,"dose: 32.0 mg/kg/injection, schedule: Q01DX Z (ip), vehicle: water",0 of 6
CCCCCCCCCCCCCCCCCC(=O)Nc1ccc(OC(=O)NC)cc1,survivor count,[4],6 of 6
c1ccc(C[N+]23CCC(CC2)CC3)cc1,survivor count,"dose: 100.0 mg/kg/injection, schedule: Q04DX003 (ip), vehicle: saline",0 of 6
same,survivor count,[2],0 of 6
same,survivor count,"dose: 400.0 mg/kg/injection, schedule: Q04DX003 (ip), vehicle: saline",0 of 6
O=C(Nc1ccc(NC(=O)Nc2cccc(C3=NCCN3)c2)cc1)Nc1ccc(C2=NCCN2)cc1,T/C,"dose: 9.0 mg/kg/injection, schedule: Q01DX Z (ip), vehicle: carboxymethylcellulose (CMC)",137 % of control
same,survivor count,"dose: 72.0 mg/kg/injection, schedule: Q01DX Z (ip), vehicle: carboxymethylcellulose (CMC)",0 of 6
same,survivor count,"dose: 250.0 mg/kg/injection, schedule: Q01DX Z (ip), vehicle: saline",3 of 6
same,survivor count,"dose: 500.0 mg/kg/injection, schedule: Q01DX Z (ip), vehicle: saline",0 of 6
CNc1nc(N(C)C)nc(N(C)C)n1,survivor count,[6],2 of 6
CCOC(=O)c1cnc(NN)[nH]c1=O,survivor count,[7],6 of 6
O=C(Nc1ccc(Cl)c([N+](=O)[O-])c1)Oc1ccccc1F,survivor count,[4],0 of 6
O=C(/C=C\c1ccc(O)cc1)c1ccccc1,survivor count,[7],6 of 6
CCCCCCCCCCSC#N,survivor count,[5],1 of 4
same,survivor count,"dose: 100.0 mg/kg/injection, schedule: Q01DX001 (ip), vehicle: saline",1 of 4
same,survivor count,[1],0 of 4
same,survivor count,[3],0 of 4
CC(C/C=N/N1CCCCC1)Nc1ccnc2cc(Cl)ccc12 (centres undefined),survivor count,"dose: 6.25 mg/kg/injection, schedule: Q01DX009 (ip), vehicle: saline with Tween-80",6 of 6
same,survivor count,"dose: 12.5 mg/kg/injection, schedule: Q01DX009 (ip), vehicle: saline with Tween-80",0 of 6
same,survivor count,"dose: 25.0 mg/kg/injection, schedule: Q01DX009 (ip), vehicle: saline with Tween-80",0 of 6
same,survivor count,"dose: 100.0 mg/kg/injection, schedule: Q01DX009 (ip), vehicle: saline with Tween-80",0 of 6
same,survivor count,"dose: 200.0 mg/kg/injection, schedule: Q01DX009 (ip), vehicle: saline with Tween-80",0 of 6
same,survivor count,"dose: 400.0 mg/kg/injection, schedule: Q01DX009 (ip), vehicle: saline with Tween-80",0 of 6
O=C(Oc1ccccc1C(=O)O)c1ccccc1O,survivor count,"dose: 200.0 mg/kg/injection, schedule: Q04DX003 (ip), vehicle: Klucel (hydroxypropylcellulose) (HPC)",3 of 3
CCCCCCCCCCCCN=c1nc(N)ccn1C1OC(CO)C(O)C1O (centres undefined),survivor count,"dose: 50.0 mg/kg/injection, schedule: Q01DX005 (ip), vehicle: saline",0 of 7
same,survivor count,"dose: 100.0 mg/kg/injection, schedule: Q01DX005 (ip), vehicle: saline",0 of 6
same,survivor count,"dose: 200.0 mg/kg/injection, schedule: Q01DX005 (ip), vehicle: saline",0 of 6
